Laboratory results: patent publication CN111363043A
No constants are given. Whether binding was seen depends on the method and setting. Some results given as binding are weak or reduced against the parent protein; the word gives no strength.

Target: T1, CD20-BSA (human)
T1 sequence (peptide, conjugated to BSA (preparation and coupling chemistry not described)): EPPQDQESSPIENDSSP
Assay: ELISA screening of hybridoma supernatants on CD20-BSA (three rounds)

binding: binds
B1: 抗CD20蛋白单克隆抗体 (secreted by mouse hybridoma cell line AbM58020-32A8-PU, CGMCC NO.17491) (antibody, V domains shown)
VH: EVKLQESGPSLVKPGASVKISCKASGNTFTDYYMNWVRQSHGQSLEWIGRFIPSTAKTNYNHKFKDKATLTLDTSLSTAYMQLNSLTSEDSAVYYCRSDFAFWGQGTLVTVSA
VL: DILMTQSPLSLSITIGQPASISCKSSQSLLYSNGKTYLNWLLQRPGQSPKRLIYIVSKLDSGVPDRFTGSGSGTDFTLKISRVEAEDLGVYYCGQGTHYPPTFGGGTKLEIK
